Reference: US12410148B2, “Antibody drug conjugates” (Pharma Mar, S.A., priority 2013, dated 2025)
The name of at least one read-out is uncertain.

Tested on: Raji-clone #18 (null CD5 expression)
Assay: In vitro cytotoxicity, MTT assay, 72 h dose-response
Format: cell-based, human
Details: DR curves, range of concentrations tested

COC1=CC[C@@H]([C@@H](C)/C=C(C)/C=C\C=C/C(=O)N[C@H](C(=O)N/C=C\C[C@H](C/C=C(\C)Cl)OC(=O)NCCCNC(=O)OCc2ccc(NC(=O)[C@H](CCCNC(N)=O)NC(=O)[C@@H](NC(=O)CCCCCN3C(=O)C=CC3=O)C(C)C)cc2)C(C)(C)C)OC1=O [Compound 12]
IC50 in CD5 null cells: did not reach the IC50 value
